The list shows a part of the results. Single values are uncertain, as repeats are few or missing.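 Imaging used 1,536-well plates; nuclei positive for cleaved PARP by antibody were divided by total DNA-stained nuclei to yield the apoptosis fraction. Doses for screening kept most cells viable, and cell lines differ markedly in resting and induced cleaved-PARP levels.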
Assays:
Assay in all cases: cleaved PARP positive nuclei fraction relative to DMSO control; melanoma cells; higher = more apoptosis
Settings in all cases: library dose: low library concentration; 72 h
COLO792 = system: COLO792
COLO800 = system: COLO800
COLO829 = system: COLO829
G361 = system: G361
IPC-298 = system: IPC-298
IST-MEL1 = system: IST-MEL1
LOXIMVI = system: LOXIMVI
MEL-HO = system: MEL-HO
MeWo = system: MeWo
RPMI7951 = system: RPMI7951
RVH-421 = system: RVH-421
SkMel28 = system: SkMel28
SkMel2 = system: SkMel2
SkMel30 = system: SkMel30
SkMel5 = system: SkMel5
UACC257 = system: UACC257
UACC62 = system: UACC62
LB2518-MEL = system: LB2518-MEL
MZ2-MEL = system: MZ2-MEL

Structure (SMILES)	cleaved PARP positive nuclei fraction (COLO792)	cleaved PARP positive nuclei fraction (COLO800)	cleaved PARP positive nuclei fraction (COLO829)	cleaved PARP positive nuclei fraction (G361)	cleaved PARP positive nuclei fraction (IPC-298)	cleaved PARP positive nuclei fraction (IST-MEL1)	cleaved PARP positive nuclei fraction (LOXIMVI)	cleaved PARP positive nuclei fraction (MEL-HO)	cleaved PARP positive nuclei fraction (MeWo)	cleaved PARP positive nuclei fraction (RPMI7951)	cleaved PARP positive nuclei fraction (RVH-421)	cleaved PARP positive nuclei fraction (SkMel28)	cleaved PARP positive nuclei fraction (SkMel2)	cleaved PARP positive nuclei fraction (SkMel30)	cleaved PARP positive nuclei fraction (SkMel5)	cleaved PARP positive nuclei fraction (UACC257)	cleaved PARP positive nuclei fraction (UACC62)	cleaved PARP positive nuclei fraction (LB2518-MEL)	cleaved PARP positive nuclei fraction (MZ2-MEL)
O=C(CCCCCCC(=O)Nc1ccccc1)NO [vorinostat] + Cc1ccc(NC(=O)c2cccc(N(C)C)c2)cc1NC(=O)c1ccc(O)cc1 [ZM336372] (first compound 0.08 µM, partner dose 2 µM)	38.6%	28.1%	98.7%	94.3%	117%	161%	72.4%	87%	109%	126%	103%	150%	36.3%	65.2%	703%	51.3%	89.4%	–	–
C=CCNC1=C2C[C@@H](C)C[C@H](OC)[C@H](O)[C@@H](C)/C=C(\C)[C@H](OC(N)=O)[C@@H](OC)/C=C\C=C(/C)C(=O)NC(=CC1=O)C2=O [Tanespimycin] + COc1ccc2c(c1)CCC1C2CCC2(C)C(NCCCCCCN3C(=O)C=CC3=O)CCC12 [U73122] (first compound 0.002 µM, partner dose 0.4 µM)	68.4%	117%	117%	93%	59.5%	85.2%	69.2%	–	219%	284%	153%	125%	17.1%	163%	80.1%	61.8%	65.3%	70%	89.4%
OCc1c[nH]c2ccccc12 [Indole-3-carbinol] + CCN(CC)CCCCNc1ncc2cc(-c3cc(OC)cc(OC)c3)c(NC(=O)NC(C)(C)C)nc2n1 [PD173074] (first compound 0.8 µM, partner dose 0.1 µM)	63.8%	42.8%	111%	37.7%	86.2%	173%	113%	–	120%	64.8%	124%	96.5%	88.3%	83%	228%	45.9%	172%	85.6%	76.4%
Clc1ccc(Nc2nnc(Cc3ccncc3)c3ccccc23)cc1 [vatalanib] + Oc1nc(-c2ccc(C(F)(F)F)cc2)nc2c1CSCC2 [XAV939] (first compound 2 µM, partner dose 2 µM)	139%	95.3%	102%	113%	41.3%	150%	24.7%	–	61.2%	176%	55.1%	125%	118%	39.4%	69.8%	188%	43.9%	181%	162%
NC(=O)Nc1cc(-c2cccc(F)c2)sc1C(=O)N[C@H]1CCCNC1 + O=C(Nc1cccc(Cl)c1)Nc1ncc(CCNc2ncnc3ccsc23)s1 [SNS314] (first compound 0.02 µM, partner dose 0.0008 µM)	184%	90.5%	95%	84.4%	249%	58.1%	276%	65.3%	86.6%	152%	49.9%	115%	–	48.4%	133%	65%	154%	–	–
Clc1ccc(Nc2nnc(Cc3ccncc3)c3ccccc23)cc1 [vatalanib] + Oc1cc(-c2nc(-c3ccccc3)[nH]c2-c2ccncc2)ccc1Cl [L779450] (first compound 2 µM, partner dose 0.2 µM)	97.4%	61.5%	94.5%	142%	203%	31.3%	71.1%	–	55.5%	67.3%	62.5%	183%	79.5%	57.6%	29.3%	116%	161%	247%	116%
OCc1c[nH]c2ccccc12 [Indole-3-carbinol] + COc1cc(N2CCC(N3CCN(C)CC3)CC2)ccc1Nc1ncc(Cl)c(Nc2ccccc2S(=O)(=O)C(C)C)n1 [NVP-TAE684] (first compound 0.8 µM, partner dose 0.08 µM)	31%	118%	90.6%	189%	60.5%	111%	38.5%	–	30.9%	333%	82%	212%	67.1%	180%	165%	135%	63.8%	82.7%	130%
Cc1nc(Nc2ncc(C(=O)Nc3c(C)cccc3Cl)s2)cc(N2CCN(CCO)CC2)n1 [dasatanib] + CN(C)S(=O)(=O)c1ccc2c(c1)/C(=C/c1cc3c([nH]1)CCCC3)C(=O)N2 [SU6656] (first compound 0.004 µM, partner dose 0.4 µM)	247%	53.5%	76.1%	157%	97.1%	61.8%	211%	79.2%	41%	188%	87.1%	88.4%	55.5%	78.4%	104%	87.1%	207%	–	–
CC(=O)c1c(C)c2cnc(Nc3ccc(N4CCNCC4)cn3)nc2n(C2CCCC2)c1=O [palbociclib] + COc1ccc(COc2ccc(Cc3cnc(N)nc3N)cc2OC)cc1 [GW2580] (first compound 0.04 µM, partner dose 1 µM)	150%	65.5%	130%	148%	53.8%	43.8%	91.6%	–	38%	194%	143%	164%	–	159%	105%	305%	97.5%	–	–
CC(=O)c1c(C)c2cnc(Nc3ccc(N4CCNCC4)cn3)nc2n(C2CCCC2)c1=O [palbociclib] + Oc1cc(-c2nc(-c3ccccc3)[nH]c2-c2ccncc2)ccc1Cl [L779450] (first compound 0.04 µM, partner dose 0.2 µM)	100%	109%	68.9%	106%	374%	112%	196%	–	36.1%	138%	222%	177%	106%	98.3%	104%	283%	209%	118%	107%
C#Cc1cccc(Nc2ncnc3cc(OCCOC)c(OCCOC)cc23)c1 [erlotinib] + OCCn1cc(-c2cnc3nnn(Cc4ccc5ncccc5c4)c3n2)cn1 [PF04217903] (first compound 0.8 µM, partner dose 1 µM)	247%	62.9%	89.2%	80.4%	96%	97.8%	44.4%	192%	57.2%	47.1%	50.5%	53%	122%	58.3%	103%	129%	202%	–	–
C=CCn1c(=O)c2cnc(Nc3ccc(N4CCN(C)CC4)cc3)nc2n1-c1cccc(C(C)(C)O)n1 + CN(NC(=O)CC(=O)NN(C)C(=S)c1ccccc1)C(=S)c1ccccc1 [STA4783] (first compound 0.02 µM, partner dose 0.006 µM)	124%	180%	118%	86.3%	141%	121%	87.3%	125%	41.5%	152%	132%	39.1%	52.9%	56.3%	228%	75.3%	165%	–	–

Record cards, as listed above. Values in the order: cleaved PARP positive nuclei fraction (COLO792) | cleaved PARP positive nuclei fraction (COLO800) | cleaved PARP positive nuclei fraction (COLO829) | cleaved PARP positive nuclei fraction (G361) | cleaved PARP positive nuclei fraction (IPC-298) | cleaved PARP positive nuclei fraction (IST-MEL1) | cleaved PARP positive nuclei fraction (LOXIMVI) | cleaved PARP positive nuclei fraction (MEL-HO) | cleaved PARP positive nuclei fraction (MeWo) | cleaved PARP positive nuclei fraction (RPMI7951) | cleaved PARP positive nuclei fraction (RVH-421) | cleaved PARP positive nuclei fraction (SkMel28) | cleaved PARP positive nuclei fraction (SkMel2) | cleaved PARP positive nuclei fraction (SkMel30) | cleaved PARP positive nuclei fraction (SkMel5) | cleaved PARP positive nuclei fraction (UACC257) | cleaved PARP positive nuclei fraction (UACC62) | cleaved PARP positive nuclei fraction (LB2518-MEL) | cleaved PARP positive nuclei fraction (MZ2-MEL)
CC(=O)c1c(C)c2cnc(Nc3ccc(N4CCNCC4)cn3)nc2n(C2CCCC2)c1=O [palbociclib] + Oc1cc(-c2nc(-c3ccccc3)[nH]c2-c2ccncc2)ccc1Cl [L779450] (first compound 0.04 µM, partner dose 0.2 µM) as listed: 100% | 109% | 68.9% | 106% | 374% | 112% | 196% | – | 36.1% | 138% | 222% | 177% | 106% | 98.3% | 104% | 283% | 209% | 118% | 107%
Clc1ccc(Nc2nnc(Cc3ccncc3)c3ccccc23)cc1 [vatalanib] + Oc1nc(-c2ccc(C(F)(F)F)cc2)nc2c1CSCC2 [XAV939] (first compound 2 µM, partner dose 2 µM) as listed: 139% | 95.3% | 102% | 113% | 41.3% | 150% | 24.7% | – | 61.2% | 176% | 55.1% | 125% | 118% | 39.4% | 69.8% | 188% | 43.9% | 181% | 162%
